# According to the supplement of paper PMC11006884:
# Chains of the proteins cited; added tags and fusions are not shown. Lines headed by an entry give the natural chain unless they say otherwise; changes in a name come on top.
# UniProt Q9H792: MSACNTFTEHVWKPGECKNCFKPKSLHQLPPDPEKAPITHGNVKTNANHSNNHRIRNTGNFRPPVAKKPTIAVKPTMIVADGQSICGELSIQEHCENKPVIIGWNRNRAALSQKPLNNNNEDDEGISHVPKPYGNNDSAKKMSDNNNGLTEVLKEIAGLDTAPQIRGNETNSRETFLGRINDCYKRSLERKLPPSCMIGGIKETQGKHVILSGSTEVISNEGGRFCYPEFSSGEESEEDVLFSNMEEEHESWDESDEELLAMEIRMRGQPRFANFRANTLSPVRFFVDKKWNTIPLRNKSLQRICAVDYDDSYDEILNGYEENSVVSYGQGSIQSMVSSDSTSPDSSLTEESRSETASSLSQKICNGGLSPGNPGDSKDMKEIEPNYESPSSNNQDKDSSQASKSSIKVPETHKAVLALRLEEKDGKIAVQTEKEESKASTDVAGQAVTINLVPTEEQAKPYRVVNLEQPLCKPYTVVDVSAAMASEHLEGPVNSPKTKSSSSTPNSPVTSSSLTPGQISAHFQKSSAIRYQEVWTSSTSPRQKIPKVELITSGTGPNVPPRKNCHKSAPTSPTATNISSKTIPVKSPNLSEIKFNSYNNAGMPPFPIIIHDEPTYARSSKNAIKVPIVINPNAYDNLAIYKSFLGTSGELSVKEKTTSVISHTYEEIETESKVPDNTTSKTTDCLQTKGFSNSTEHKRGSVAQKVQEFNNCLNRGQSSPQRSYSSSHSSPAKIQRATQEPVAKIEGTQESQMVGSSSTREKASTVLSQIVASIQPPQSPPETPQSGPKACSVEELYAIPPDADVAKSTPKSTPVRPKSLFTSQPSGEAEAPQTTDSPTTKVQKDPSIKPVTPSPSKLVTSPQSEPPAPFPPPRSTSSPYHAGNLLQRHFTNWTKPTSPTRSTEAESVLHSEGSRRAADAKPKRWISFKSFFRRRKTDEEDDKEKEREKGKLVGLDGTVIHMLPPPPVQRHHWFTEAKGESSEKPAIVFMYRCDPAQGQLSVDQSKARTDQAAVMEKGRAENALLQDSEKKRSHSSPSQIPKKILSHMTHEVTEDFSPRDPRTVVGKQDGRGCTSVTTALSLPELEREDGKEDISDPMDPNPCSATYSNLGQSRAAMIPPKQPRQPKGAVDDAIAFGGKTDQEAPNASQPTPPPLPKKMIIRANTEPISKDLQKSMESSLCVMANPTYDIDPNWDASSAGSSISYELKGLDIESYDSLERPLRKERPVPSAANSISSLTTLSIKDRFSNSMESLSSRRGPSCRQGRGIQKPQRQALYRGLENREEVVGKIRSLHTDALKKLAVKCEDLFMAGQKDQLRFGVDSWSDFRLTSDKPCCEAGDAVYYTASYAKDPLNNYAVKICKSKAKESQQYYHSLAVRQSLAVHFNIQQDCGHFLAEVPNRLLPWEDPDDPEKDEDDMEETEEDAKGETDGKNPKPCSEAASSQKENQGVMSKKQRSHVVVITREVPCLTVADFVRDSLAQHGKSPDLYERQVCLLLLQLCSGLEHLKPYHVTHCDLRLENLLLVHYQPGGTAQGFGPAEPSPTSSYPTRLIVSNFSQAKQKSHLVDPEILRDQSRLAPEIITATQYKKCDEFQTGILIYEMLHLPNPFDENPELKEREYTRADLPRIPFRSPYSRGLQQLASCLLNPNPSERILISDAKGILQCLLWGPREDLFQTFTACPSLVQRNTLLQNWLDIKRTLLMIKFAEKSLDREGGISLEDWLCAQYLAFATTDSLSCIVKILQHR
# UniProt Q9NTI5: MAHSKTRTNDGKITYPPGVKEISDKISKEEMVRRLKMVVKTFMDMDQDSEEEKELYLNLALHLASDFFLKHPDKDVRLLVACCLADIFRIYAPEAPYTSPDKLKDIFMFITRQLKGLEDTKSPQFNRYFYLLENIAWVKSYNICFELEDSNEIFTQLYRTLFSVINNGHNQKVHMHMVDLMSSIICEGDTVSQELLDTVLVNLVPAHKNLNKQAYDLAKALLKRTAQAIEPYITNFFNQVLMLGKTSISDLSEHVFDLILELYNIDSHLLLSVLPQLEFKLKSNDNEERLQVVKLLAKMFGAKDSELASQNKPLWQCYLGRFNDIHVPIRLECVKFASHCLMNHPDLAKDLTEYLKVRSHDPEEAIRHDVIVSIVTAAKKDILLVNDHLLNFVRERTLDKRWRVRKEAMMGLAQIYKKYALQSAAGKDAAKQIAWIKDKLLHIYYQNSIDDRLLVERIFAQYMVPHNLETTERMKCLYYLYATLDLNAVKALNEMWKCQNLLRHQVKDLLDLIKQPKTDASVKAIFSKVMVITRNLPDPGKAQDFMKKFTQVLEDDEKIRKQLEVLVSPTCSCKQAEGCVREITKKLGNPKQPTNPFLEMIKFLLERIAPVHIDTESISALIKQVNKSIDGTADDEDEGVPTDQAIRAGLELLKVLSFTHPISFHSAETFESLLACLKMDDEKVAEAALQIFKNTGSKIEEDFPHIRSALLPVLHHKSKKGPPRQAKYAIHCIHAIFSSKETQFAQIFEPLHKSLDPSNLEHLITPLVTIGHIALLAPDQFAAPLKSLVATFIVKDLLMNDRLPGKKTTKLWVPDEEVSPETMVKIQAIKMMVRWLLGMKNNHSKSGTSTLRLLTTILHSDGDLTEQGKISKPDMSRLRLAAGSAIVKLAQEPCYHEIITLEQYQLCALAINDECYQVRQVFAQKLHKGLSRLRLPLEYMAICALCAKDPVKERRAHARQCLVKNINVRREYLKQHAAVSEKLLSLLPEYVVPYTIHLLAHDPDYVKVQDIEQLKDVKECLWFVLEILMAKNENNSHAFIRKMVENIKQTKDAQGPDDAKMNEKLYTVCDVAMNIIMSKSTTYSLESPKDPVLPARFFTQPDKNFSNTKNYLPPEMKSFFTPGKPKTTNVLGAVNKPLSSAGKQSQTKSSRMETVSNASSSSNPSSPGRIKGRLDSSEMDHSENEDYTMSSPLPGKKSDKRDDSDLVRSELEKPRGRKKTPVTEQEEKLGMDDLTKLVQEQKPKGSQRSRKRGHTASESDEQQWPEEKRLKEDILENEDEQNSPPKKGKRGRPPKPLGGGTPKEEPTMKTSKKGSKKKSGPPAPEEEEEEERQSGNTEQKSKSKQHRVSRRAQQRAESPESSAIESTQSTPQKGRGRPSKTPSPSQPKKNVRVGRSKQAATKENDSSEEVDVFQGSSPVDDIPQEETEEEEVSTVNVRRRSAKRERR
# UniProt Q9NRL2: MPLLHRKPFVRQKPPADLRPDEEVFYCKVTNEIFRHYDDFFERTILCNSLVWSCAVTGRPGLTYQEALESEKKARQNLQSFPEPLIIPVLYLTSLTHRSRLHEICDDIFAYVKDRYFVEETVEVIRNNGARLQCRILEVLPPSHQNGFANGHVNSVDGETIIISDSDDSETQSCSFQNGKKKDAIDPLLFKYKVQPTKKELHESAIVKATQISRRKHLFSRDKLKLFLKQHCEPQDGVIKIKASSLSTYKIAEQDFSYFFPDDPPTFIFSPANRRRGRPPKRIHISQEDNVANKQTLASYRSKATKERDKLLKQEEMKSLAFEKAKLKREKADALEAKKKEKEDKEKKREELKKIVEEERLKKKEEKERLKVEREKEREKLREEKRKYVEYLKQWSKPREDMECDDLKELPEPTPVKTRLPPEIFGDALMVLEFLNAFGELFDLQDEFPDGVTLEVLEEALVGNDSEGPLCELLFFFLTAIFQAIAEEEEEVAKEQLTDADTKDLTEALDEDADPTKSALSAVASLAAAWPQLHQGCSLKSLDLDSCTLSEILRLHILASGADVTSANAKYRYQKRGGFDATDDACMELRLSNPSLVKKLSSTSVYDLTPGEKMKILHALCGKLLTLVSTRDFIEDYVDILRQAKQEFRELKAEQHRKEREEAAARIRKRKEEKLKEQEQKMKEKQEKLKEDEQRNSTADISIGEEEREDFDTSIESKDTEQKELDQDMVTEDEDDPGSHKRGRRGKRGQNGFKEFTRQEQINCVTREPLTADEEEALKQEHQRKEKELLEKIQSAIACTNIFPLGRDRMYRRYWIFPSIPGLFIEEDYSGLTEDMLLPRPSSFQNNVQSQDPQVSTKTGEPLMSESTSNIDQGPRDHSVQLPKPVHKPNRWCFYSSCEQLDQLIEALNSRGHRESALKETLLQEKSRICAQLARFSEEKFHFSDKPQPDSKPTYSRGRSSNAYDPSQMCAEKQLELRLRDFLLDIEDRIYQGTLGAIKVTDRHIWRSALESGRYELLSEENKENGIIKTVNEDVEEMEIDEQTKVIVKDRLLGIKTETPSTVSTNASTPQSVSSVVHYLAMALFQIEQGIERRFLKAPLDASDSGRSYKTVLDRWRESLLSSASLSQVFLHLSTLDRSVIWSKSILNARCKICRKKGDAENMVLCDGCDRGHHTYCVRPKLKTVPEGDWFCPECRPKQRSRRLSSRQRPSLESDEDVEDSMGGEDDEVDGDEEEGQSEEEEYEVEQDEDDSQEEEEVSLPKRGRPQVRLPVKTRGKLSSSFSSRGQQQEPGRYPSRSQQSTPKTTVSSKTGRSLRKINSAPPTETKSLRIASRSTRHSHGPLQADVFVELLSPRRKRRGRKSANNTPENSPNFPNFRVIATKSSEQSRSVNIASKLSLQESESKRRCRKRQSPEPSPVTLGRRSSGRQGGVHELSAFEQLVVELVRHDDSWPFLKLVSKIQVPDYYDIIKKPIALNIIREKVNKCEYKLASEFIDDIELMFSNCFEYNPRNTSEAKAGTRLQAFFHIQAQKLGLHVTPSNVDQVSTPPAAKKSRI
# UniProt Q9HBK9: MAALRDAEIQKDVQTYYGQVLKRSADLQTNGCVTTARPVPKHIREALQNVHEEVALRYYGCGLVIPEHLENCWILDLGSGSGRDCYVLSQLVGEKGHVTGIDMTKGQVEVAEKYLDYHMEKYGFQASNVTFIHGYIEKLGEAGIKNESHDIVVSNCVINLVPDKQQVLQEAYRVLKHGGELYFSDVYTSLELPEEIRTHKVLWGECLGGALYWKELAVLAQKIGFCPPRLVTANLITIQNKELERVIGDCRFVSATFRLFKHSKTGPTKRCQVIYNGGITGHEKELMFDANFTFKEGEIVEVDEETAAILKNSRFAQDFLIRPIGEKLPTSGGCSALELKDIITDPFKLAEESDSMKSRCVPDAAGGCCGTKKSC
# UniProt Q9H773: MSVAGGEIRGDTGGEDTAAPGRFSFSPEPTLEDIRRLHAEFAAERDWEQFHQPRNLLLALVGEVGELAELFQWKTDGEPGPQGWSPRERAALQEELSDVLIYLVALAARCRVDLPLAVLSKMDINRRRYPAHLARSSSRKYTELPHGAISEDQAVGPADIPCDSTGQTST
# UniProt Q9NSE4: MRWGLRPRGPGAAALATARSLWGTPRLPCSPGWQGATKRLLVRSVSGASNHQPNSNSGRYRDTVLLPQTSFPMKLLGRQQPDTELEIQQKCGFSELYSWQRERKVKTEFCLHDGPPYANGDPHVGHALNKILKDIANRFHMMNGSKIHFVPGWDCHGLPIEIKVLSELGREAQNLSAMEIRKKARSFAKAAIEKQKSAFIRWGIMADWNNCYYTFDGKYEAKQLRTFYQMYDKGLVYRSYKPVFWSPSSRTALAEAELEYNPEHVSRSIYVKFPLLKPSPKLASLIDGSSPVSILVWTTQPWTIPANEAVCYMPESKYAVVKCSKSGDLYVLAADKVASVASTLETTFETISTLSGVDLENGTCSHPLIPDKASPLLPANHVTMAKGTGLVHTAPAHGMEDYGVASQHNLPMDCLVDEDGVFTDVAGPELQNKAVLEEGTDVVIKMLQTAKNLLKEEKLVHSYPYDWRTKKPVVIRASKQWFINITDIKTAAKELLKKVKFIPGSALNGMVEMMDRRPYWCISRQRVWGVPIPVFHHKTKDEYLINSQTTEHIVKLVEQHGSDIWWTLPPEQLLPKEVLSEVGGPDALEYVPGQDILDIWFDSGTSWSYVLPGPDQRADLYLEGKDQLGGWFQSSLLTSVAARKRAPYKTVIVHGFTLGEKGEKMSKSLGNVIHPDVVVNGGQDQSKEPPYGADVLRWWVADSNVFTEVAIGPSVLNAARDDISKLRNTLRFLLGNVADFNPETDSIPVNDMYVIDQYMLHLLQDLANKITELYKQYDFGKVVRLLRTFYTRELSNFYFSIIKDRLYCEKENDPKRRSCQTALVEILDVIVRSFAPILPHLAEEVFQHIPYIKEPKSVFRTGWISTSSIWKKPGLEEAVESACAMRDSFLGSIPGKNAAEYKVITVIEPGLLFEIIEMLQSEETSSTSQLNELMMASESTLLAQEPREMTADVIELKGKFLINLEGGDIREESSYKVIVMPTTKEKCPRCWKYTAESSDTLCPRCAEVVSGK
# UniProt Q9NRP0: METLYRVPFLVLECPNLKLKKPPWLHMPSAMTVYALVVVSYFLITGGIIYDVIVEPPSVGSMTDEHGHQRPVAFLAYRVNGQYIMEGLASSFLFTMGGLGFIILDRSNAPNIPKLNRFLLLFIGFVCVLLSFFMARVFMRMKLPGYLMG
# The list shows a part of the results, in another mix than the full data.
# Compound: COC(=O)C#Cc1ccccc1 [methyl 3-phenylpropiolate]
# Assay: log2 ratio of iodoacetamide-alkyne labeling of the cysteine site, DMSO over compound (competition); higher = stronger covalent engagement of the cysteine by the compound, active = 1 or more
# Conditions: 500 µM; treatment time 1 h; system: HEK293T cell lysate
# How it was run: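 For each cysteine, the log2 competition ratio is mean control-channel reporter intensity over mean compound-channel reporter intensity. HEK293T lysate (2 mg/mL) was exposed to vehicle or electrophile (500 µM, 1 h, ambient temperature), labelled with iodoacetamide alkyne (1 h), clicked to sCIP-TMT reagents, digested overnight with trypsin at 37 °C, streptavidin-enriched and analysed by Orbitrap Eclipse LC-MS/MS with FAIMS and FragPipe. Cysteines quantified in only one of three replicates, each with duplicate channels, were excluded.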
row,Target,log2 ratio of iodoacetamide-alkyne labeling
1,RAVER2 C631 (UniProt Q9HCJ3),inactive: 0.475
2,EPB41L5 C727 (UniProt Q9HCM4),inactive: 0.311
3,UniProt Q9NQG6_C111,inactive: 0.389
4,STARD7 C362 (UniProt Q9NQZ5),inactive: 0.426
5,UniProt Q9NR48_C747,inactive: -0.0788
6,HEATR1 C49 (UniProt Q9H583),inactive: -0.0715
7,ANLN C71 (UniProt Q9NQW6),inactive: 0.51
8,RAB18 C160 (UniProt Q9NP72),inactive: 0.305
9,ANLN C309 (UniProt Q9NQW6),inactive: 0.254
10,PEAK1 C993 (UniProt Q9H792),inactive: 0.21
11,MDN1 C1839 (UniProt Q9NU22),inactive: 0.281
12,UCK1 C9 (UniProt Q9HA47),inactive: 0.165
13,UniProt Q9H3N1_C106,inactive: -0.513
14,RNPEP C181 (UniProt Q9H4A4),inactive: 0.0149
15,PDS5B C1069 (UniProt Q9NTI5),inactive: 0.199
16,BAZ1A C893 (UniProt Q9NRL2),inactive: 0.87
17,XPO5 C1131 (UniProt Q9HAV4),inactive: 0.415
18,UniProt Q9HBK9_C334,inactive: 0.537

# For convenience, part of the list above.
row,Target,log2 ratio of iodoacetamide-alkyne labeling
13,UniProt Q9H3N1_C106,inactive: -0.513
14,RNPEP C181 (UniProt Q9H4A4),inactive: 0.0149

# The list goes on:

row,Target,log2 ratio of iodoacetamide-alkyne labeling
1,MRPL46 C52 (UniProt Q9H2W6),inactive: 0.499
2,UniProt Q9H773_C162,inactive: 0.268
3,IARS2 C414 (UniProt Q9NSE4),inactive: 0.144
4,GRPEL1 C108 (UniProt Q9HAV7),inactive: 0.255
5,REEP4 C200 (UniProt Q9H6H4),inactive: 0.145
6,UniProt Q9HBK9_C32,active: 1.1
7,IARS2 C155 (UniProt Q9NSE4),inactive: 0.532
8,MBNL1 C53 (UniProt Q9NR56),inactive: 0.189
9,PHAX C51 (UniProt Q9H814),inactive: 0.659
10,SLC25A22 C25 (UniProt Q9H936),inactive: -0.0128
11,STRN4 C562 (UniProt Q9NRL3),inactive: 0.455
12,RTN4 C1101 (UniProt Q9NQC3),inactive: 0.12
13,UniProt Q9H8G2_C226,inactive: 0.149
14,ZNF644 C1206 (UniProt Q9H582),inactive: 0.615
15,XPO5 C736 (UniProt Q9HAV4),inactive: 0.176
16,OSTC C14 (UniProt Q9NRP0),inactive: 0.193
17,UniProt Q9H6R7_C472,inactive: 0.561
18,SFXN1 C190 (UniProt Q9H9B4),inactive: 0.345
